Experimental data reported in US12539264B2, “Composition comprising pentapeptide as active ingredient” (priority 2020, dated 2026).
Part of at least one peptide drawing is inferred or uncertain, most often the ends. No end group written: not given here.

Chains of the proteins cited; added tags and fusions are not shown.
UniProt Q16623, whole entry: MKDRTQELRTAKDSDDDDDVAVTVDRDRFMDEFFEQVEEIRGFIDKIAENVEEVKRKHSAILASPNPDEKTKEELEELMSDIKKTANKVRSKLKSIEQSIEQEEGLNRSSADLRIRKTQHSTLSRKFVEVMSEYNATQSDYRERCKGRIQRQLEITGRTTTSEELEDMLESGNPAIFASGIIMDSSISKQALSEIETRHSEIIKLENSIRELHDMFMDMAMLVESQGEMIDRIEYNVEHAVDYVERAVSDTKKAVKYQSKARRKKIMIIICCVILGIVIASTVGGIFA

Molecular target: SNARE complex (Homo sapiens, UniProt Q16623)
Experiment: Inhibition of SNARE complex formation in nerve cells (Western blot, syntaxin 1a antibody)
Format: cell-based
Details: SH-SY5Y cells, 24 hours; pentapeptide 10, 50, 100 μM; BoNT/C LC 0.2 μM

## KFLIK [pentapeptide, KFLIK]
  SNARE complex formation: SNARE complex formation was inhibited
